From the supplement of paper PMC10735217
Where a name gives a salt, the structure may show the parent alone. The list shows a part of the results. Repeats in this data set agree poorly, so a single value says little.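 In a drug-repurposing library screen, luminescence reads luciferase driven by eight TEAD-binding elements, stably integrated into human kidney-derived cells. Compounds scoring over five robust Z scores above the plate mean are called hits.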

System: HEK293A TEAD-LUC reporter
Assay: TEAD-luciferase reporter activity (YAP activation), robust Z score vs plate; higher = stronger YAP/TEAD activation
Settings: 24 h

| Structure (SMILES) | TEAD-luciferase reporter activity (compound concentration: 200 nM) | TEAD-luciferase reporter activity (compound concentration: 2 uM) | TEAD-luciferase reporter activity (compound concentration: 10 uM) |
| --- | --- | --- | --- |
| O=C(O)CO [glycolic acid] | inactive: -0.198 | inactive: 0.0144 | inactive: 0.669 |
| C[C@@H](n1cnc2cc(Cl)ccc2c1=O)[C@](O)(Cn1cncn1)c1ccc(F)cc1F [albaconazole] | inactive: -1.11 | inactive: 1.95 | inactive: 0.605 |
| CCN(CC)CCOc1ccc(Cc2ccccc2)cc1 [Tesmilifene] | inactive: -1.18 | – | inactive: -0.961 |
| CCN(CC)CCOc1ccc(Cc2ccccc2)cc1 [tesmilifene hydrochloride] | – | inactive: -0.291 | – |
| CN(C)C(=O)c1cc(CC(=O)O)ccc1NC(=O)c1ccccc1-c1ccc(C(F)(F)F)cc1 [granotapide metabolite] | inactive: -0.343 | inactive: -0.456 | inactive: 0.47 |
| CN(C)CCNc1nccc(NCc2ccc(CNc3nc(Cl)ncc3F)cc2)n1 | inactive: 4 | inactive: -0.174 | inactive: 3.51 |
| O=C1c2ccccc2CCC1CNCCc1ccc(O)cc1 (stereo not drawn) | inactive: -1.58 | inactive: -0.524 | inactive: -1.19 |
| COC(=O)[C@H]1[C@H]2C[C@@H]3c4[nH]c5cc(OC)ccc5c4CCN3C[C@H]2C[C@@H](OC(=O)/C=C/c2cc(OC)c(OC)c(OC)c2)[C@@H]1OC | inactive: 0.0935 | inactive: -0.0876 | inactive: 2.97 |
| CCCn1c(=O)c2nc(-c3cnn(Cc4cccc(C(F)(F)F)c4)c3)[nH]c2n(CCC)c1=O | inactive: -0.676 | inactive: -0.769 | inactive: 1.51 |
| COC(c1ccccc1)(c1ccccc1)[C@H](Oc1nc(C)cc(C)n1)C(=O)O [ambrisentan] | inactive: -1.84 | inactive: 0.116 | inactive: -0.131 |
| C[C@H]1[C@@H](O)O[C@@H]2OC3(C)CC[C@H]4[C@H](C)CC[C@@H]1[C@]24OO3 [Artenimol] | inactive: 1.54 | inactive: 0.849 | inactive: -1.71 |
| COc1ccc(-c2ccc(Cn3c(CC(C)(C)C(=O)[O-])c(SC(C)(C)C)c4cc(OCc5ccccn5)ccc43)cc2)cn1 | inactive: 0.556 | inactive: -0.415 | inactive: -0.407 |
| O[C@@H](COc1cccc2ncccc12)CN1CCN([C@@H]2c3ccccc3[C@@H]3[C@H](c4ccccc42)C3(F)F)CC1 [Zosuquidar trihydrochloride] | inactive: -1.33 | inactive: 0.097 | inactive: 1.8 |
| CC(O)CC(C)(C)O (stereo not drawn) | inactive: -0.0681 | inactive: -0.697 | inactive: -0.288 |
| O=C(CCCN1CCN2Cc3[nH]c4ccccc4c3CC2C1)c1ccc(F)cc1 (stereo not drawn) [Biriperone] | inactive: -1.44 | inactive: -0.697 | inactive: 3.01 |
| O=C(c1ccccc1)N1CCN=C1Nc1c(Cl)cccc1Cl [benclonidine] | inactive: 0.534 | inactive: -2.27 | inactive: 0.921 |

| Structure (SMILES) | TEAD-luciferase reporter activity (compound concentration: 200 nM) | TEAD-luciferase reporter activity (compound concentration: 2 uM) | TEAD-luciferase reporter activity (compound concentration: 10 uM) |
| --- | --- | --- | --- |
| COC(=O)[C@H]1CC[C@H]2[C@@H]3CC[C@H]4N(C)C(=O)CC[C@]4(C)[C@H]3CC[C@]12C | inactive: -0.917 | inactive: 0.3 | inactive: -0.75 |
| Cc1c(-c2ccc(O)cc2)n(Cc2ccc(OCCN3CCCCC3)cc2)c2ccc(O)cc12 | inactive: -2.02 | inactive: 0.199 | inactive: -0.321 |
| CN1CCC2(CC1)CC(NC(=O)Nc1cccc3ccccc13)c1ccccc1O2 (stereo not drawn) | inactive: 1.39 | inactive: 0.0367 | active: 5.05 |
| CN(C)C(c1cccc(O)c1)C1CCCCC1O (stereo not drawn) [ciramadol] | inactive: 0.465 | inactive: -1.37 | inactive: -1.71 |
| COCCCC/C(=N/OCCN)c1ccc(Cl)cc1 [Clovoxamine] | inactive: 0.0135 | inactive: 0.648 | inactive: 1.46 |
| Cc1sc(NC(=O)C2CCCCC2C(=O)O)nc1-c1ccc(F)cc1 (stereo not drawn) | inactive: -0.417 | inactive: -0.876 | inactive: 2.07 |
| NCCCC[C@H](NC(=O)[C@@H]1CCCN1C(=O)[C@@H]1CSSC[C@H](N)C(=O)N[C@@H](Cc2ccc(O)cc2)C(=O)N[C@@H](Cc2ccccc2)C(=O)N[C@@H](CCC(N)=O)C(=O)N[C@@H](CC(N)=O)C(=O)N1)C(=O)NCC(N)=O [Lypressin] | inactive: -0.0514 | inactive: 0.67 | inactive: 0.148 |
| Cc1ccc(C(=O)Nc2cccc(C(F)(F)F)c2)cc1NC(=O)c1cccc2c(N)nccc12 | inactive: -0.618 | inactive: -0.838 | inactive: 2.74 |
| C[C@]12C=CC(=O)N[C@@H]1CC[C@@H]1[C@@H]2CC[C@]2(C)[C@@H](C(=O)c3ccccc3)CC[C@@H]12 | inactive: -0.157 | inactive: -0.279 | inactive: -0.702 |
| COCCCN1CCC(NC(=O)c2cc(Cl)c(N)c3c2OCC3)CC1 [prucalopride succinate (IV)] | inactive: -1.03 | inactive: -0.448 | inactive: -0.13 |
| COc1ccc(N(C)c2nc(C)nc3ccccc23)cc1 [verubulin] | active: 8.19 | active: 9.05 | active: 7.22 |
| COc1ccc2c(c1)c(CC(=O)OCCSCC(=O)NCCCOc1cccc(CN3CCCCC3)c1)c(C)n2C(=O)c1ccc(Cl)cc1 | inactive: 2.58 | inactive: 1.57 | inactive: 0.772 |
| COc1cccc(N(C)C(=S)Oc2ccc3c(c2)CCCC3)n1 [Liranaftate] | inactive: -0.795 | – | inactive: -0.672 |
| COc1cccc(N(C)C(=S)Oc2ccc3c(c2)CCCC3)n1 [liranaftate] | – | inactive: 0.472 | – |
| CC(=O)NC1C(O)OC(COS(=O)(=O)O)C(OC2OC(C(=O)O)C(OC3OC(CO)C(OC4OC(C(=O)O)C(O)C(O)C4OS(=O)(=O)O)C(OS(=O)(=O)O)C3NS(=O)(=O)O)C(O)C2OS(=O)(=O)O)C1O (stereo not drawn) [Enoxaparin sodium] | – | inactive: -0.319 | – |
| COc1ccccc1Oc1c(NS(=O)(=O)c2ccc(C)cn2)nc(-c2ccnc(-c3nnn[nH]3)c2)nc1OCCO [Clazosentan sodium] | inactive: 0.177 | inactive: -1.62 | inactive: -1.35 |

A few values from the entries so far:
Value of COC(=O)[C@H]1CC[C@H]2[C@@H]3CC[C@H]4N(C)C(=O)CC[C@]4(C)[C@H]3CC[C@]12C under TEAD-luciferase reporter activity (compound concentration: 200 nM): inactive: -0.917
Value of NCCCC[C@H](NC(=O)[C@@H]1CCCN1C(=O)[C@@H]1CSSC[C@H](N)C(=O)N[C@@H](Cc2ccc(O)cc2)C(=O)N[C@@H](Cc2ccccc2)C(=O)N[C@@H](CCC(N)=O)C(=O)N[C@@H](CC(N)=O)C(=O)N1)C(=O)NCC(N)=O [Lypressin] under TEAD-luciferase reporter activity (compound concentration: 200 nM): inactive: -0.0514
Value of C[C@]12C=CC(=O)N[C@@H]1CC[C@@H]1[C@@H]2CC[C@]2(C)[C@@H](C(=O)c3ccccc3)CC[C@@H]12 under TEAD-luciferase reporter activity (compound concentration: 2 uM): inactive: -0.279
